Article PMC13378530

Target: p53 DBD (UniProt P04637)
Test: EMSA
Settings: 400 nM p53 DBD, 5 nM probe, no U14; 50 mM Tris-HCl pH 7.5, 10 mM MgCl2, 1 mM ATP, 25 ug/mL BSA, 10% glycerol, 10 mM DTT, 200 mM KCl; p53+U14 30 min at 4 C, then probe 90 min on ice; recombinant protein; residues 94-312; label: 5'-FAM on forward strand

## CGGGCATGTCCGGGCATGTCCTG (double strand) [p53RE probe]
  binding result: binds

Construct, isoform or probe ends are uncertain for at least one entry.
